Measurements taken from patent US5625044A, “Methods for the preparation of pure homologous series of mono to tetra fatty acyl esters of sugars and pharmaceutical formulations useful in the treatment of cancer” (Goudreau Gage Dubec & Martineau, priority 1994, dated 1997).
For at least one compound, name, drawing or mass did not settle the structure.

System: C3HBA
Assay: Antitumor activity of maltose palmitates against C3HBA fragment implanted s.c. in C3H/HeN females
Assay type: in vivo, C3H/HeN mice
Details: ip. 3 times weekly, 10 μg (individual palmitates)
From the text: The scientific and patent literature on tri-fatty acyl disaccharides is non existent. This compound has not been obtained as a single entity. The compound forms complexes and rarely appeared as a pure band in our investigations. However, when the mixture is subjected to HPLC as described in I, we obtain sufficient quantities of di, tri and tetra palmitates. This allowed us to test each of these components individually and in combinations. Briefly, the following results were obtained using C3HBA fragment implanted s.c. in C3H/HeN females.

CCCCCCCCCCCCCCCC(=O)OC[C@H]1O[C@H](O[C@H]2[C@H](O)[C@@H](O)C(OC(=O)CCCCCCCCCCCCCCC)O[C@@H]2COC(=O)CCCCCCCCCCCCCCC)[C@H](O)[C@@H](O)[C@@H]1O (stereo partly shown) [maltose tripalmitate, maltose 1, 6, 6' tri palmitate]
Tumor diameter on day 28: 1'8-2'0
